Experimental data reported in doi:10.1101/412908.
These are yes or no findings as the source states them, for the method shown. Binding seen in cells or lysates may run through a third protein. Some binding calls cover weakened binding; strength is not graded here.

Protein sequences, listed by entry. Tags and fused reporters are not part of them. Lines headed by an entry give the natural chain unless they say otherwise; changes in a name come on top. Chains listed by the source or under a name are the forms on record and can include a tag or linker.
WT-tau(4R0N) (P10636, form named): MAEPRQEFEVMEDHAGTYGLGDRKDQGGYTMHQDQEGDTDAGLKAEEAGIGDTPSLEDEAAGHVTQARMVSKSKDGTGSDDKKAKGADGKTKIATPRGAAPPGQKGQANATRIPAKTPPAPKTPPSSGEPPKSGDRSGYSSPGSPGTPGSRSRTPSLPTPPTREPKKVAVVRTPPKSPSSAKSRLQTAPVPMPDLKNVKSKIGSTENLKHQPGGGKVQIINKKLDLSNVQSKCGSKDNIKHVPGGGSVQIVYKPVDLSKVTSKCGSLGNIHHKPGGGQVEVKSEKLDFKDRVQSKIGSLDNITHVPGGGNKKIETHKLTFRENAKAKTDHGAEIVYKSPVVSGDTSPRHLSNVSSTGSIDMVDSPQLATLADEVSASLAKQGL
UniProt O95433: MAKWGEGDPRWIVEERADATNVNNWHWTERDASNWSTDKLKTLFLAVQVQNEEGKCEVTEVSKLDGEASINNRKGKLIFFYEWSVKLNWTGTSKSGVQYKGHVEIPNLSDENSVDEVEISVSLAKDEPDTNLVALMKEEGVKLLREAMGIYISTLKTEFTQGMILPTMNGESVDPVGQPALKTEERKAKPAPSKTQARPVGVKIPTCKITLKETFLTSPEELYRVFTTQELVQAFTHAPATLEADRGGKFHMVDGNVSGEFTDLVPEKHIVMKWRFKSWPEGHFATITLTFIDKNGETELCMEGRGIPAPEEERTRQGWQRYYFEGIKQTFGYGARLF

Biological target: WT-tau(4R0N) (UniProt P10636)
Assay: co-IP

For “Aha1 (endogenous, HeLa) (from UniProt O95433 1-338)”, the binding was “binds”.
